According to the supplement of paper PMC6078165:
Values are relative to the signal before dosing, not to a vehicle control; the signal also falls without drug.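 Fibroblast labels denote human fibroblasts, mainly primary ones from uterus (C12385, HUF), lung (H6013), bone (Hs27A), adrenal (HADF) and skin (WS1), plus mammary HMF and breast cancer-associated Hs343T. Cancer cells are basal-like or mesenchymal-like triple-negative breast cancer lines. A hit is a response shift exceeding 3x replicate standard deviation. The tissue of the other fibroblasts is not given here.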

Test system: Hs578T
Assay: relative JC-1 red fluorescence (viability) vs pre-drug, coculture with fibroblast (fraction); higher = more viable cancer cells
Description: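 JC-1 labelled TNBC cells cocultured 1:1 (1,500 cells each) with CellTrace Violet stained primary or stromal fibroblasts in 384-well plates in FluoroBrite medium, treated with one of 42 anticancer drugs at 0.1, 1, 10 or 100 uM. JC-1 red fluorescence (mitochondrial integrity in cancer cells only) was read by plate reader every 8 h for 72 h. Values are normalised to each well's pre-drug value. The stock of one drug was tenfold lower, so its dose labels may be too high.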

CC/C(=C(\c1ccccc1)c1ccc(OCCN(C)C)cc1)c1ccccc1 [Tamoxifen]
relative JC-1 red fluorescence
Settings | 8 h | 16 h | 24 h | 32 h | 40 h | 48 h | 56 h | 64 h | 72 h
0.1 µM | 0.896 | 0.79 | 0.7433 | 0.7074 | 0.659 | 0.615 | 0.59 | 0.542 | 0.524
1 µM | 0.8863 | 0.812 | 0.777 | 0.748 | 0.683 | 0.635 | 0.613 | 0.568 | 0.537
10 µM | 0.917 | 0.901 | 0.925 | 0.927 | 0.9 | 0.887 | 0.896 | 0.865 | 0.865

relative JC-1 red fluorescence
Settings | 8 h | 16 h | 24 h | 32 h | 40 h | 48 h | 56 h | 64 h | 72 h
0.1 µM, coculture fibroblast: C12385 | 0.815 | 0.692 | 0.644 | 0.554 | 0.4978 | 0.463 | 0.4246 | 0.416 | 0.415
0.1 µM, coculture fibroblast: H6013 | 0.8853 | 0.7828 | 0.736 | 0.72 | 0.689 | 0.682 | 0.666 | 0.666 | 0.645
0.1 µM, coculture fibroblast: H6019 | 0.756 | 0.672 | 0.66966 | 0.58232 | 0.553 | 0.529 | 0.497 | 0.483 | 0.464
0.1 µM, coculture fibroblast: H6076 | 0.947 | 0.853 | 0.783 | 0.757 | 0.722 | 0.731 | 0.713 | 0.712 | 0.711
0.1 µM, coculture fibroblast: H6231 | 0.8834 | 0.787 | 0.685 | 0.641 | 0.57 | 0.534 | 0.481 | 0.465 | 0.452
0.1 µM, coculture fibroblast: HADF | 0.902 | 0.791 | 0.744 | 0.696 | 0.663 | 0.636 | 0.609 | 0.605 | 0.586
0.1 µM, coculture fibroblast: HCFa | 0.9066 | 0.795 | 0.744 | 0.696 | 0.63 | 0.601 | 0.566 | 0.544 | 0.504
0.1 µM, coculture fibroblast: HCPF | 0.911 | 0.797 | 0.767 | 0.741 | 0.682 | 0.66 | 0.64 | 0.608 | 0.595
0.1 µM, coculture fibroblast: HHSteC | 0.897 | 0.755 | 0.686 | 0.636 | 0.569 | 0.527 | 0.497 | 0.471 | 0.437
0.1 µM, coculture fibroblast: HMF | 0.864 | 0.757 | 0.687 | 0.666 | 0.611 | 0.579 | 0.546 | 0.523 | 0.507
0.1 µM, coculture fibroblast: HPFa | 0.90163 | 0.83 | 0.754 | 0.691 | 0.64 | 0.596 | 0.555 | 0.528 | 0.485
0.1 µM, coculture fibroblast: HUF | 0.8808 | 0.738 | 0.717 | 0.6092 | 0.541 | 0.501 | 0.469 | 0.46 | 0.451
0.1 µM, coculture fibroblast: Hs27A | 0.8734 | 0.805 | 0.752 | 0.693 | 0.6332 | 0.6038 | 0.563 | 0.54669 | 0.4975
0.1 µM, coculture fibroblast: Hs343T | 0.892 | 0.768 | 0.6997 | 0.679 | 0.615 | 0.592 | 0.562 | 0.544 | 0.544
0.1 µM, coculture fibroblast: WS1 | 0.831 | 0.708 | 0.656 | 0.555 | 0.502 | 0.49 | 0.465 | 0.467 | 0.465
1 µM, coculture fibroblast: C12385 | 0.839 | 0.69742 | 0.695 | 0.591 | 0.536 | 0.508 | 0.49 | 0.49 | 0.488
1 µM, coculture fibroblast: H6013 | 0.9196 | 0.879 | 0.862 | 0.856 | 0.836 | 0.834 | 0.817 | 0.816 | 0.796
1 µM, coculture fibroblast: H6019 | 0.784 | 0.7 | 0.679 | 0.58 | 0.5418 | 0.5121 | 0.477 | 0.456 | 0.4265
1 µM, coculture fibroblast: H6076 | 0.911 | 0.8304 | 0.783 | 0.777 | 0.731 | 0.73 | 0.713 | 0.698 | 0.693
1 µM, coculture fibroblast: H6231 | 0.8974 | 0.801 | 0.7484 | 0.714 | 0.653 | 0.632 | 0.584 | 0.564 | 0.546
1 µM, coculture fibroblast: HADF | 0.913 | 0.8114 | 0.79 | 0.751 | 0.72 | 0.703 | 0.666 | 0.656 | 0.626
1 µM, coculture fibroblast: HCFa | 0.878 | 0.825 | 0.791 | 0.742 | 0.694 | 0.68 | 0.653 | 0.637 | 0.604
1 µM, coculture fibroblast: HCPF | 0.919 | 0.819 | 0.792 | 0.762 | 0.705 | 0.688 | 0.676 | 0.635 | 0.618
1 µM, coculture fibroblast: HHSteC | 0.9157 | 0.823 | 0.775 | 0.726 | 0.674 | 0.635 | 0.601 | 0.575 | 0.536
1 µM, coculture fibroblast: HMF | 0.861 | 0.76 | 0.7459 | 0.731 | 0.686 | 0.664 | 0.644 | 0.613 | 0.6
1 µM, coculture fibroblast: HPFa | 0.9177 | 0.8686 | 0.78635 | 0.724 | 0.677 | 0.627 | 0.577 | 0.548 | 0.5
1 µM, coculture fibroblast: HUF | 0.848 | 0.74 | 0.694 | 0.583 | 0.527 | 0.492 | 0.456 | 0.449 | 0.443
1 µM, coculture fibroblast: Hs27A | 0.8735 | 0.828 | 0.769 | 0.734 | 0.678 | 0.657 | 0.616 | 0.611 | 0.558
1 µM, coculture fibroblast: Hs343T | 0.895 | 0.7955 | 0.759 | 0.739 | 0.6673 | 0.629 | 0.598 | 0.573 | 0.571
1 µM, coculture fibroblast: WS1 | 0.8124 | 0.702 | 0.637 | 0.537 | 0.484 | 0.462 | 0.434 | 0.43 | 0.423
10 µM, coculture fibroblast: C12385 | 0.835 | 0.795 | 0.793 | 0.82 | 0.83 | 0.8492 | 0.859 | 0.8581 | 0.857
10 µM, coculture fibroblast: H6013 | 0.941 | 0.9484 | 0.948 | 0.902 | 0.851 | 0.818 | 0.767 | 0.802 | 0.792
10 µM, coculture fibroblast: H6019 | 0.8041 | 0.81 | 0.815 | 0.803 | 0.776 | 0.745 | 0.714 | 0.678 | 0.648
10 µM, coculture fibroblast: H6076 | 0.937 | 0.943 | 0.934 | 0.937 | 0.904 | 0.907 | 0.872 | 0.841 | 0.814
10 µM, coculture fibroblast: H6231 | 0.838 | 0.951 | 0.942 | 0.913 | 0.881 | 0.882 | 0.8392 | 0.819 | 0.794
10 µM, coculture fibroblast: HADF | 0.919 | 0.963 | 0.829 | 0.881 | 0.861 | 0.819 | 0.9229 | 0.871 | 0.812
10 µM, coculture fibroblast: HCFa | 0.9298 | 0.968 | 0.934 | 0.871 | 0.883 | 0.983 | 0.961 | 0.947 | 0.901
10 µM, coculture fibroblast: HCPF | 0.971 | 0.948 | 0.969 | 0.96 | 0.95 | 0.9694 | 0.967 | 0.942 | 0.912
10 µM, coculture fibroblast: HHSteC | 0.926 | 0.918 | 0.93 | 0.95344 | 0.9463 | 0.9639 | 0.954 | 0.938 | 0.918
10 µM, coculture fibroblast: HMF | 0.955 | 0.947 | 0.876 | 0.931 | 0.905 | 0.897 | 0.86 | 0.839 | 0.801
10 µM, coculture fibroblast: HPFa | 0.921 | 0.939 | 0.952 | 0.976 | 0.97 | 0.927 | 0.938 | 0.929 | 0.8811
10 µM, coculture fibroblast: HUF | 0.8714 | 0.822 | 0.857 | 0.827 | 0.812 | 0.794 | 0.753 | 0.734 | 0.708
10 µM, coculture fibroblast: Hs27A | 0.953 | 0.932 | 0.834 | 0.831 | 0.778 | 0.8 | 0.851 | 0.718 | 0.868
10 µM, coculture fibroblast: Hs343T | 0.821 | 0.896 | 0.875 | 0.894 | 0.961 | 0.949 | 0.903 | 0.87 | 0.8433
10 µM, coculture fibroblast: WS1 | 0.8216 | 0.848 | 0.844 | 0.886 | 0.905 | 0.937 | 0.933 | 0.931 | 0.915
